The text below walks through data of paper PMC2814829.

For this experiment, the target named is T1, CED-2 in vivo (ced-2::tap construct) (C. elegans) (UniProt Q9NHC3).
T1 sequence: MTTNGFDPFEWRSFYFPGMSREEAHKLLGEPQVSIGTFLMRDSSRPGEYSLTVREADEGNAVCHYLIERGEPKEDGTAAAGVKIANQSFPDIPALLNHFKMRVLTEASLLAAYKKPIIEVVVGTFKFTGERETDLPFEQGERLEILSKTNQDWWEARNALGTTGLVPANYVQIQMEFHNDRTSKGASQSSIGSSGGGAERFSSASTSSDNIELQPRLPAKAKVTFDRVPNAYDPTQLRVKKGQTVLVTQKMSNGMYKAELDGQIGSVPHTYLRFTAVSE
The experiment can be described thus: affinity purification with mass spectrometry; proteomics efforts in vivo (C. elegans); methods in Text S1.

These are yes or no findings as the source states them, for the method shown. Binding seen in cells or lysates may run through a third protein. These calls come from enrichment with a bait or labelling near it, and not all partners need be listed. No binding means not detected with the bait.

B1: APR-1 in vivo (C. elegans) (protein, UniProt Q21227 1-1188)
chain: MSSSSSDENETTIHRTGSNTGGSGIYSQPRAGSSKRTSNVRHDVSDVDDEEEHYARFREDTAIEVDDAITVLLSSLHFEHKRDIVPTDEDDNKLRELHEKIFALITSESDVNRKRRLKKALPASNCVREQVYYLRRKPSTPPASYYHRLNAALHTIVKESFGEEYRKVATVLGLVEALAEVLILEVHTFGINETNPGEHRNIRKLIANALTNLTYGQIHSKRRLCSYDGFIRCVVRIVIESPNITQVYAGLIRNLSWNADSGMSEALQPTVHALSIAAVHAHTHRFDVTATLSALWNLAGHSVENKRTICDTPNCLKVLASLLSPDARFTSLVDSATGILKYVSQYLANTSTHLELRSLLITRMLTLLKSASFTCVTNTLGAIANLIVKDPHMQQMIRQDMAAVQQLNVLRNSNRDDIRTAVKSVLNTLNQPCSHRYGDMSHSVGGGATGMQMLSEPQLQMQTSHHAYHGTASPRLLSLRATRASPGKYIQPQAQQQLIQTPQVDQRSSSLPRHFAVQRNGFVMAQSYNQQMDQHQQQQMIYQLQQQQQIMFQTEDQAQMEHHQQIMYLQQQQQQFHQIQQQQQMQKAQEADPVPPTDDDLDIPTSTVMGTRSNSERSLGSMNPGSVMTNWNSSLDTAANSSRALSPVSYNDIPASPTMCAQVFNLPKSTESEHHQLTSQQQNTTHYSSGSANTMTRSDGATTVPMDNIITPTYAILNPILVHEQTPNGTVPRKTSEELDSPDDVLPGPSLEEEEGDYAIIGGAAQKTDDELLTRSIQSEMPTSSSTPKMKVSPRLNGFFSPTQKTTSSPAWSHPDTSPIPKSSSHRTQPNRRQDASDADRLLMESIMSEMPKSRIISPRLAGTQQYLEPEPERRSHSKNEEADRRDAFTASHEPSDHNGIDVARGSDWSPQQQLHRMESLESQASSEDSFGLTAEEPNSSTSGAAANTMRFDDEIDASLPMDCVDDDDYDYTYDHFEDYEDEEDPDATQFDDGVDAQLTIDCSMISSGSGSSQRNETTTTSRDSKALATSTPKGSASSLPGVRQATRVSTNGKSRLPVPKTNGSLVDKNPKPIIASRRPRLPPKPTLLKDKHYPEEDSIENQTRDDTIYVNAPVVEAEQERIYMNALKQQKNIEQSPSIGNGSPIAKSAIVTPYNYQKPPFTGRNNGEMSNEKSVTPNPKQMLVTIV
Regarding B1, the binding entry is on record as “no binding”.
